PubChem BioAssay AID1508597 | Cure First, 2020

Screen: 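Knock-downs altering ovarian cancer cell survival with or without PARP inhibitor rucaparib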 (primary screen)
System: human ovarian carcinoma lines grown from tumours: OCI-P5x (papillary serous) and OCI-C5x (clear cell)
Reagents: siRNA pool against human genes, 1.25 pmol siRNA per well
Time to read-out: 72 h or 96 h, depending on the cell culture
Challenge: rucaparib 20 µM (about IC30) or vehicle, present until read-out
Rucaparib or vehicle: Vehicle
Cell line: OCI-P5x (serous)
Measurement: 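Luminescent ATP-based viability assay read 72 or 96 h after transfection, depending on culture, given as normalised percent viability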
Direction: viability, normalised: higher = more viable cells remaining
Active means: 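a well counts as a hit if its normalised viability is under 80 percent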
Meaning of the calls: active = viability under 80%; inactive = viability 80% or more
This is an unselected part of the about 2,100 reagents, under one of the conditions tested. 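Calls flag viability under 80% in either arm, not effects specific to rucaparib; the reference for percent is not stated.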 Entries without a mark were called inactive. Some reagents were tested in more than one well and are listed for each. No sequences are given here. Not given: the 100% reference.

The first 3 entries as a preview:
| Gene | technical replicate | viability, normalised (%) |
| --- | --- | --- |
| PER1 (period circadian regulator 1) | 1 | 63.5 (active) |
| PER1 (period circadian regulator 1) | 1 | 56.5 (active) |
| PER1 (period circadian regulator 1) | 2 | 53.7 (active) |

Results, from the first entry:
| Gene | technical replicate | viability, normalised (%) |
| --- | --- | --- |
| PER1 (period circadian regulator 1) | 1 | 63.5 (active) |
| PER1 (period circadian regulator 1) | 1 | 56.5 (active) |
| PER1 (period circadian regulator 1) | 2 | 53.7 (active) |
| PER1 (period circadian regulator 1) | 2 | 72.6 (active) |
| PER1 (period circadian regulator 1) | 3 | 52 (active) |
| PER1 (period circadian regulator 1) | 3 | 55.8 (active) |
| NEK6 (NIMA related kinase 6) | 1 | 85.4 |
| NEK6 (NIMA related kinase 6) | 2 | 74.3 (active) |
| NEK6 (NIMA related kinase 6) | 3 | 71.6 (active) |
| L3MBTL3 (L3MBTL histone methyl-lysine binding protein 3) | 1 | 58.1 (active) |
| L3MBTL3 (L3MBTL histone methyl-lysine binding protein 3) | 2 | 68.3 (active) |
| L3MBTL3 (L3MBTL histone methyl-lysine binding protein 3) | 3 | 73.2 (active) |
| PRKCZ (protein kinase C zeta) | 1 | 62.5 (active) |
| PRKCZ (protein kinase C zeta) | 2 | 61.4 (active) |
| PRKCZ (protein kinase C zeta) | 3 | 87.2 |
| DDX10 (DEAD-box helicase 10) | 1 | 45.2 (active) |
| DDX10 (DEAD-box helicase 10) | 2 | 63.3 (active) |
| DDX10 (DEAD-box helicase 10) | 3 | 59.5 (active) |
| PKD2L2 | 1 | 66.8 (active) |
| PKD2L2 | 2 | 71.6 (active) |
| PKD2L2 | 3 | 71.5 (active) |
| PRMT1 (protein arginine methyltransferase 1) | 1 | 72.4 (active) |
| PRMT1 (protein arginine methyltransferase 1) | 2 | 74.9 (active) |
| PRMT1 (protein arginine methyltransferase 1) | 3 | 97.3 |
| PDE6D (phosphodiesterase 6D) | 1 | 74.9 (active) |
| PDE6D (phosphodiesterase 6D) | 2 | 79.2 (active) |
| PDE6D (phosphodiesterase 6D) | 3 | 80.7 |
| ENPP2 (ectonucleotide pyrophosphatase/phosphodiesterase 2) | 1 | 64.2 (active) |
| ENPP2 (ectonucleotide pyrophosphatase/phosphodiesterase 2) | 2 | 71.9 (active) |
| ENPP2 (ectonucleotide pyrophosphatase/phosphodiesterase 2) | 3 | 66.8 (active) |
| CARM1 (coactivator associated arginine methyltransferase 1) | 1 | 57.6 (active) |
| CARM1 (coactivator associated arginine methyltransferase 1) | 2 | 37.8 (active) |
| CARM1 (coactivator associated arginine methyltransferase 1) | 3 | 47.7 (active) |
| FGR (FGR proto-oncogene, Src family tyrosine kinase) | 1 | 64 (active) |
| FGR (FGR proto-oncogene, Src family tyrosine kinase) | 2 | 76.8 (active) |
| FGR (FGR proto-oncogene, Src family tyrosine kinase) | 3 | 57.7 (active) |
| LMTK2 (lemur tail kinase 2) | 1 | 97 |
| LMTK2 (lemur tail kinase 2) | 2 | 80.3 |
| LMTK2 (lemur tail kinase 2) | 3 | 72.2 (active) |
